Measured values taken from patent US7763642B2 (Sterix Ltd., priority 2004, dated 2010).

Biological target: T1, aromatase (Homo sapiens, UniProt P11511)
T1 construct: Intact monolayers of JEG3 cells (2.5×10^6 cells) in triplicate 25 cm^2 tissue culture flasks; host or cells: JEG3 choriocarcinoma cells
T1 sequence (P11511 1-503): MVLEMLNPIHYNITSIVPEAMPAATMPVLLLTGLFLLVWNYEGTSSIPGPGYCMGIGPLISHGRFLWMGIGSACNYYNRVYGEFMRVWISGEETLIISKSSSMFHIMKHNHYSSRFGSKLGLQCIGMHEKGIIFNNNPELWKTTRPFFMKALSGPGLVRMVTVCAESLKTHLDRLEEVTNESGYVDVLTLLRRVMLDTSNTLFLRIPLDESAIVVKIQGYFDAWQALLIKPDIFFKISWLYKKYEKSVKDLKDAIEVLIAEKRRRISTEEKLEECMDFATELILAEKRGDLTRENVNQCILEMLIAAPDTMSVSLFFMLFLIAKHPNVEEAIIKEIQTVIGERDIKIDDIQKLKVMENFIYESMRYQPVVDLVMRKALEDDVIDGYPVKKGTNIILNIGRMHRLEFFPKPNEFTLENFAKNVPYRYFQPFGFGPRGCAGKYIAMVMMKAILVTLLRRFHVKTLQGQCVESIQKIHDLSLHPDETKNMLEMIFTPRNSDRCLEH
Assay: Aromatase activity in JEG3 choriocarcinoma cells (Protocol 6)
Assay type: cell-based

CC(C)(C#N)c1cc(Cn2cncn2)cc(C(C)(C)C#N)c1 [Anastrozole, 2-[3-(Cyano-dimethyl-methyl)-5-[1,2,4]triazol-1-ylmethyl-phenyl]-2-methyl-propionitrile, reference compound]
IC50: 1.5 nM
